Measurements taken from the M2OR odorant receptor database.
Only a part is listed here, and it is no random draw. The calls were merged from several studies; some rest on single wells. The list shows a part of the results. Some of the results follow.

Legend:
Settings in all cases: stereoisomer not certain
OR2W1 = tested on: T1, OR2W1
T1 sequence (whole entry): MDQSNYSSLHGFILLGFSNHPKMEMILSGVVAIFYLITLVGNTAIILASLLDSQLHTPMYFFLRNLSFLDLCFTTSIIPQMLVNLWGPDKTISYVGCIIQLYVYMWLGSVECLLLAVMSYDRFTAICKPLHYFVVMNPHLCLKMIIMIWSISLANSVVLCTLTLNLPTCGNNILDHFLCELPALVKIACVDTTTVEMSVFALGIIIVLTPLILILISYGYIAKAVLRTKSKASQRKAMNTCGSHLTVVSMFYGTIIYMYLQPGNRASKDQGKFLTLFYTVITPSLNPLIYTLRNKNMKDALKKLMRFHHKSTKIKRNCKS
Method in brief: (§1)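 Whether a receptor–molecule pair is responsive (active) rests on the original authors' judgment that its measured signal was statistically different from baseline. Pairs without that judgment are non-responsive (inactive). Sources used varied assay methods, commonly transient luciferase assays in mammalian cell lines.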

OR2W3 = tested on: T2, OR2W3
T2 sequence (whole entry): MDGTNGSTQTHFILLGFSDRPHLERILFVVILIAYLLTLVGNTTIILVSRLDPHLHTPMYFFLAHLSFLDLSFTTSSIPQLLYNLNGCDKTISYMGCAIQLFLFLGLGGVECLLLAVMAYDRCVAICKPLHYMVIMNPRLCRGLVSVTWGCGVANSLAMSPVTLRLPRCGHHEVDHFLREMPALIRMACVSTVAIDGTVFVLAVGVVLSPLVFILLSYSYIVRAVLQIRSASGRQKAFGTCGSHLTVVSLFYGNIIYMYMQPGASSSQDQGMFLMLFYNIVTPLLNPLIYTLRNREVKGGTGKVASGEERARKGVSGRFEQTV
Method in brief: as §1

OR2W5P (Homo sapiens) = biological target: T3, OR2W5P (Homo sapiens) (UniProt A6NFC9)
T3 sequence (whole entry): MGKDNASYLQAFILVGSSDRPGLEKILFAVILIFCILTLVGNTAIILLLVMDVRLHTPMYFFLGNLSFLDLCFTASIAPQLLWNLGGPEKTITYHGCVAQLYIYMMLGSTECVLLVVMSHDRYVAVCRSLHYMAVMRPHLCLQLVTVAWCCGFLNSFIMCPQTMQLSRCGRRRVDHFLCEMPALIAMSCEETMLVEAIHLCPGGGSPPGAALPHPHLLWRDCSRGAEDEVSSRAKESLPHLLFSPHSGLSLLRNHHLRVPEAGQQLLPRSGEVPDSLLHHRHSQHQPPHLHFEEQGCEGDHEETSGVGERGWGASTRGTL
Method in brief: as §1

OR2Y1 = tested on: T4, OR2Y1
T4 sequence (whole entry): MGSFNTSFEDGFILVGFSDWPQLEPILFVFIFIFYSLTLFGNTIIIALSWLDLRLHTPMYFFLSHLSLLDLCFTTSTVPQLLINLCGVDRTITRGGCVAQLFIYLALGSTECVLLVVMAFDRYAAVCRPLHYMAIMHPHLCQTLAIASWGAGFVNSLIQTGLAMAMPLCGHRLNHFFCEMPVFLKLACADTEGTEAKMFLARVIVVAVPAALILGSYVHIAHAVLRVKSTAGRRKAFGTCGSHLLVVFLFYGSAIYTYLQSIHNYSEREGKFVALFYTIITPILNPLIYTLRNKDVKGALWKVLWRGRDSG
Method in brief: as §1

OR2Z1 (Homo sapiens) = biological target: T5, OR2Z1 (Homo sapiens) (UniProt Q8NG97)
T5 sequence (whole entry): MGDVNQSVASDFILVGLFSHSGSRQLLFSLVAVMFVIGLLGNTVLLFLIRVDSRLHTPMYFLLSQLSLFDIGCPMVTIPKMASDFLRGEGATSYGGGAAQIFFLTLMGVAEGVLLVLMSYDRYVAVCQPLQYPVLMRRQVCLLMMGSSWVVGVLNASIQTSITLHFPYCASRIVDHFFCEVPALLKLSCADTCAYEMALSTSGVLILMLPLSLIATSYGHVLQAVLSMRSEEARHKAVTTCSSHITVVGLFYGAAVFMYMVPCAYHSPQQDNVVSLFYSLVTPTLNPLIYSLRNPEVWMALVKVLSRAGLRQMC
Method in brief: as §1

OR3A1 (Homo sapiens) = biological target: T6, OR3A1 (Homo sapiens) (UniProt P47881)
T6 sequence (whole entry): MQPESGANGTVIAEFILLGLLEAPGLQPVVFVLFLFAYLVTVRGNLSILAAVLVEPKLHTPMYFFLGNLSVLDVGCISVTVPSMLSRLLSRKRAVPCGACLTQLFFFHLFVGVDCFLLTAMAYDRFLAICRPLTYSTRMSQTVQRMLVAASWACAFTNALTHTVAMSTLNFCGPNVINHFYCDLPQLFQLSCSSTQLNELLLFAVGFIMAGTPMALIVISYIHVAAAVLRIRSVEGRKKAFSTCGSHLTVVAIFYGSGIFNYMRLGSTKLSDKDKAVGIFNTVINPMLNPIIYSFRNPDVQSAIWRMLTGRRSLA
Method in brief: as §1

OR3A2 (Homo sapiens) = biological target: T7, OR3A2 (Homo sapiens) (UniProt P47893)
T7 sequence (whole entry): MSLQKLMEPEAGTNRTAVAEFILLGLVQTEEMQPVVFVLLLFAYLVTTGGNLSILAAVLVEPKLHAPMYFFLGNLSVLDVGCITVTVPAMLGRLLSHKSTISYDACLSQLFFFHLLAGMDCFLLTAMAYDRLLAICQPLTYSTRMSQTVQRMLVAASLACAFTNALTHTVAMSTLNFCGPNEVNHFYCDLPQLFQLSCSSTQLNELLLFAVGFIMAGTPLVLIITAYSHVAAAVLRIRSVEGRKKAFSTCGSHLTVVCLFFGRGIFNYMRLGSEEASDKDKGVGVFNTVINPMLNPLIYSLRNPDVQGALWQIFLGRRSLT
Method in brief: as §1

OR3A3 = tested on: T8, OR3A3
T8 sequence (whole entry): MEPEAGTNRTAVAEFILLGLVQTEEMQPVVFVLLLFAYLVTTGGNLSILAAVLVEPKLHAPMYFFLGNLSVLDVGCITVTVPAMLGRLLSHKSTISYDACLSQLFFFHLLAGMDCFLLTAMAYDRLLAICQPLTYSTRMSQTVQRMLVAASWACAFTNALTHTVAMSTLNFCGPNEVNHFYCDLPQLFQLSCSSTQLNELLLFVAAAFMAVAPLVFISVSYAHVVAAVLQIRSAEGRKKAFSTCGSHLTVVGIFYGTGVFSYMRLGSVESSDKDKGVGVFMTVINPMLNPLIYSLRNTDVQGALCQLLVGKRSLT
Method in brief: as §1

OR3A4 = tested on: T9, OR3A4
T9 sequence (whole entry): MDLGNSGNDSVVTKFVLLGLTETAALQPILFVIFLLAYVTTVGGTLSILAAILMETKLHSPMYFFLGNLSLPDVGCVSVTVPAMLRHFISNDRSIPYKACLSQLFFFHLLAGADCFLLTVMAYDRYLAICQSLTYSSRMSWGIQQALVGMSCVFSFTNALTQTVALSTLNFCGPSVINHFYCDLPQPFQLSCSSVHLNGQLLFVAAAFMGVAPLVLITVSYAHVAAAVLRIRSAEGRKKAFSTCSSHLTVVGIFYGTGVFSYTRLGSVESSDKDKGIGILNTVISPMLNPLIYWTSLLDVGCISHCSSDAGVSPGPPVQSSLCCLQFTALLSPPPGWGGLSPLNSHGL
Method in brief: as §1

OR4A16 (Homo sapiens) = biological target: T10, OR4A16 (Homo sapiens) (UniProt Q8NH70)
T10 sequence (whole entry): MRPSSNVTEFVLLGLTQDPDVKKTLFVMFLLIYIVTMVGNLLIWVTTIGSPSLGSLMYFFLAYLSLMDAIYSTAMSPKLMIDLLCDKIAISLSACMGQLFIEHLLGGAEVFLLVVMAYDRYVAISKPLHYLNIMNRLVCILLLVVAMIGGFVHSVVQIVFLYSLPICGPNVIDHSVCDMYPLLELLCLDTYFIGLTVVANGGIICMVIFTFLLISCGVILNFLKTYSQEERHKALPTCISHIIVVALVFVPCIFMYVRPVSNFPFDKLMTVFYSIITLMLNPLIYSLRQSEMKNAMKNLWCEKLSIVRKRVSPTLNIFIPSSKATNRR
Method in brief: as §1

OR4A4P (Homo sapiens) = biological target: T11, OR4A4P (Homo sapiens) (UniProt Q8NGN8)
T11 sequence (whole entry): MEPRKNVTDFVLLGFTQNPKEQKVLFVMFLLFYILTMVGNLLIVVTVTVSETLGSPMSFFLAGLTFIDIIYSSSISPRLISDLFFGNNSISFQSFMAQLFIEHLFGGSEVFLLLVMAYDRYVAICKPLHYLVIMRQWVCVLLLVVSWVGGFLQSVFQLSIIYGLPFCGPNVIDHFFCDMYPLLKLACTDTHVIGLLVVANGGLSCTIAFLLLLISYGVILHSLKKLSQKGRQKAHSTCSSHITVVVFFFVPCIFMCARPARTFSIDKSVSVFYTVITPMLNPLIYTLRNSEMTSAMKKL
Method in brief: as §1

OR4A5 (Homo sapiens) = biological target: T12, OR4A5 (Homo sapiens) (UniProt Q8NH83)
T12 sequence (whole entry): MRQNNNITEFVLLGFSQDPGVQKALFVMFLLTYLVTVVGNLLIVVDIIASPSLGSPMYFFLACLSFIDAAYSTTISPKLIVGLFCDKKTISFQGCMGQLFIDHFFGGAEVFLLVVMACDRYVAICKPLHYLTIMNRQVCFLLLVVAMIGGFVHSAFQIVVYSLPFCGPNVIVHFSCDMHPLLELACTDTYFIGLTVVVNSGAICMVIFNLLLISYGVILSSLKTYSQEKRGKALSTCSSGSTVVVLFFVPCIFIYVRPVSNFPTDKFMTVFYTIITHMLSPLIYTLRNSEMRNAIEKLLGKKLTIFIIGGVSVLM
Method in brief: as §1

OR4A5 = tested on: T13, OR4A5
T13 sequence (whole entry): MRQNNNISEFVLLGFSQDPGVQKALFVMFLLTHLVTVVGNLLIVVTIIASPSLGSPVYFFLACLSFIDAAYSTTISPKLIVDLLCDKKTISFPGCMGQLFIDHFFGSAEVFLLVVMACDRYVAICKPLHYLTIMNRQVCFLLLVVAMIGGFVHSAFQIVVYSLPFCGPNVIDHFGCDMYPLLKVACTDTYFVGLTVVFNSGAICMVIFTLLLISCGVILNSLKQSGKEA
Method in brief: as §1

OR4B1 (Homo sapiens) = biological target: T14, OR4B1 (Homo sapiens) (UniProt Q8NGF8)
T14 sequence (whole entry): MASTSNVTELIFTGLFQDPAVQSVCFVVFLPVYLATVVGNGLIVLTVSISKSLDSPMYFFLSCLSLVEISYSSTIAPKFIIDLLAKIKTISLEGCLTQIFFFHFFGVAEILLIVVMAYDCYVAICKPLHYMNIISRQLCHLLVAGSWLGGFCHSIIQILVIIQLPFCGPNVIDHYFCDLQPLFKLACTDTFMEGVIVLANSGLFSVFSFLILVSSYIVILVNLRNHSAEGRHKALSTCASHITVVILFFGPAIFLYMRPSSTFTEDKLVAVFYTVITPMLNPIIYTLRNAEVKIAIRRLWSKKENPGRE
Method in brief: as §1

OR4C11 (Homo sapiens) = biological target: T15, OR4C11 (Homo sapiens) (UniProt Q6IEV9)
T15 sequence (whole entry): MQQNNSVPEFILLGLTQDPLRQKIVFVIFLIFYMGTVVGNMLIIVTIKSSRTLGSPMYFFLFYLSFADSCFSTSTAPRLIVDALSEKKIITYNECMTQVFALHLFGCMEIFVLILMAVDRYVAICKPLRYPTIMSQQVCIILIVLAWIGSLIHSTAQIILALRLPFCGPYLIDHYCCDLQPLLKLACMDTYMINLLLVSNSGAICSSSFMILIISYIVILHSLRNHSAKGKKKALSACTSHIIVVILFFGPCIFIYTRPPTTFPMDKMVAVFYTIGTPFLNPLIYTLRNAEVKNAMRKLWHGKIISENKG
Method in brief: as §1

Measured: odorant receptor agonist call;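 also: active if original authors judged signal statistically different from baseline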

COc1cc(C)ccc1O
inactive: OR2W1 | OR2W3 | OR2W5P (Homo sapiens) | OR2Y1 | OR2Z1 (Homo sapiens) | OR3A1 (Homo sapiens) | OR3A2 (Homo sapiens) | OR3A3 | OR3A4 | OR4A16 (Homo sapiens) | OR4A4P (Homo sapiens) | OR4A5 (Homo sapiens) | OR4A5 | OR4B1 (Homo sapiens) | OR4C11 (Homo sapiens)

CC12CCC(C1)C(C)(C)C2=O (stereo not given)
inactive: OR2W1 | OR2W3 | OR2W5P (Homo sapiens) | OR2Y1 | OR2Z1 (Homo sapiens) | OR3A1 (Homo sapiens) | OR3A2 (Homo sapiens) | OR3A3 | OR3A4 | OR4A16 (Homo sapiens) | OR4A4P (Homo sapiens) | OR4A5 (Homo sapiens) | OR4A5 | OR4B1 (Homo sapiens) | OR4C11 (Homo sapiens)

COC(=O)c1ccccc1O
inactive: OR2W1 | OR2W3 | OR2W5P (Homo sapiens) | OR2Y1 | OR2Z1 (Homo sapiens) | OR3A1 (Homo sapiens) | OR3A2 (Homo sapiens) | OR3A3 | OR3A4 | OR4A16 (Homo sapiens) | OR4A4P (Homo sapiens) | OR4A5 (Homo sapiens) | OR4A5 | OR4B1 (Homo sapiens) | OR4C11 (Homo sapiens)
